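Whole-parasite assay of Trypanosoma brucei over 72 hours; the read-out is not stated. Concentration: 30 µM. Higher reads as stronger inhibition (inferred: compounds with an IC50 in retests scored well above the rest). Values scatter widely below zero; nearly all retest evidence comes from the higher of the two concentrations used. About 64,000 compounds were tested under these conditions; 1.5% (about 940) showed 50% or more at least once.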

Each number is a percent effect as filed.
How 0% and 100% were set is not recorded. Most values in the screen are low, and negative values occur.
The compounds are a random part of those screened.

SMILES,percent effect
CC(C)n1nc(Cn2cccn2)c2c1CN(C1CCOC1)C2.O=C(O)C(F)(F)F (centres unmarked),-9.314
CCn1ccnc1CN(C)c1cc(C2CC2)ncn1,-46.31
COc1ncc(C2(O)CCN(Cc3cc(F)ccc3F)CC2)c(OC)n1.Cl,-3.769
CCc1ccc(C(=O)NCC2CCCN2CC)o1 (centres unmarked),-35.33
Cc1ccc(C(F)(F)F)cc1NC(=O)C1CCCN1 (centres unmarked),-13.08
COc1ccc(C2CCCN2c2ccnc(C)c2Cl)c(OC)c1 (centres unmarked),-31.9
Cc1nc(CN2C(=O)CCC23CCN(Cc2cccn2C)CC3)cs1.O=C(O)C(F)(F)F.O=C(O)C(F)(F)F,-11.23
NC(=O)Cn1cnc2nc3n(c2c1=O)CCC3,-21.39
OC(CNc1ccc(Cl)cn1)CN1CCOCC1 (centres unmarked),-154.5
COc1ccccc1CNC(=O)CNc1ccccc1C(C)=O,2.03
Cc1cc(C)n2ncc(CN3C[C@@H](O)[C@H](Oc4ccccc4)C3)c2n1,-7.358
CCOc1ncccc1C(=O)N1CCCC(n2nc(C)cc2C)C1 (centres unmarked),-20.92
CC1CCN(C(=O)C(C)n2cc(Br)cn2)CC1 (centres unmarked),-16.48
CC(C)OC[C@H]1CCC[C@]12CN(S(=O)(=O)C1CC1)CCO2,-70.06
[H][C@]12CC[C@]([H])(CN(c3ncccc3C(N)=O)C1)N(Cc1ccccn1)C2=O,-30.26
Cc1ccccc1CC(C)(C)NC(=O)c1cccc(OCC(N)=O)c1,-0.8331
F[C@@H]1CN(CC2CC2)C[C@@H]1OCc1nc2ncccc2[nH]1,-6.054
Cc1cc(C2CCC2)nc(NCC(C)(C)N2CCOCC2)n1,2.549
COC(=O)C1CN(CC(=O)Nc2cc(F)ccc2F)c2ccccc21 (centres unmarked),-17.21
COCCNc1nc(C2CCCC2)nc2c1CCNCC2,6.267
Cc1cc(CNCC2CCCN(C(=O)OC(C)(C)C)C2)no1 (centres unmarked),-12.44
Cc1nc(C(=O)N2CCOCC2)cc(N2CCC(C(N)=O)CC2)n1,-50.36
CN(C)CCNC(=O)c1sccc1N(C)S(=O)(=O)c1ccc(Cl)cc1,-35.26
CN(c1c(F)cccc1F)S(=O)(=O)c1cc2c(c(C(=O)O)c1)OCCO2,-1.695
O=C(Nc1cnn(CCN2CCOCC2)c1)c1ccccn1,-16.94
CN(Cc1cccc(C#N)c1)c1ncc(C(N)=O)cc1Cl,14.59
Cc1ccc(F)c(NS(=O)(=O)c2cc(C(=O)O)oc2C)c1,-22.19
[H][C@@]12CC[C@H](Oc3ccccc3)[C@]1([H])CN(C(=O)CN(C)C)C2,-29.85
COCC(=O)N1CCn2c(Cn3cncn3)cnc2C1C (centres unmarked),-10.51
FC(F)(F)c1ccnc(N2CCCCCC2)c1,-16.38
Cc1cc(C(=O)N2C[C@@H](CN3CCOCC3)C[C@H](CO)C2)nc(C)n1,-1.305
CCc1nnc(SC2CCCN(c3cnn(C)c3)C2=O)n1C (centres unmarked),-21.25
O=C(Cc1ccc(F)cc1)NCCNCC1CNc2ccnn2C1 (centres unmarked),-7.341
CS(=O)(=O)c1cccc(S(=O)(=O)NC(=O)CC2CCCC2)c1,-63.36
CCN(CC)C(=O)Cn1cc(C(=O)NCCCc2scnc2C)nn1,-14.96
COCC(=O)NCc1cc(=O)n2c(n1)CN(Cc1ccoc1)CCC2,-29.61
O=C(NCc1ccccc1Cn1ccnc1)N1CCSCC1,-52.33
CCN(Cc1ccco1)C(=O)NCc1nnc2n1CCCCC2,-113.2
O=c1cc(Cn2ccnc2)nc2n1CCCN(Cc1ccncc1)C2,-37.25
CC(=O)NCCc1cc2nc(-c3ccncc3)ccn2n1,-2.712
CCn1cnnc1CNC(=O)NC(C)c1ccc(Cl)s1 (centres unmarked),6.201
CCn1cnnc1CNC(=O)c1cc(F)ccc1OC,5.156
CCNc1ncc(C(=O)NCc2cccc(OC(F)(F)F)c2)cn1,8.685
[H][C@]12CCN(C(N)=O)[C@@]1([H])CC[C@H](COCc1csc(C)n1)O2,-14.29
Cn1cc(C(=O)NCc2ccc(OC3CCCCC3)nc2)ccc1=O,-48.66
CC(NC(=O)CCc1cccs1)c1nnc2n1CCC2 (centres unmarked),11.9
CCCOC(=O)c1ccc(-c2ccc(/C=C3\C(=O)NC(=N)N3C)o2)cc1,-30.56
CNc1nc(C)c(C(=O)N2C[C@@H](C(=O)O)[C@H](C3CC3)C2)s1,-32.97
COc1ccc(Cl)cc1C(C(=O)O)N1CCSCC1 (centres unmarked),-71.2
CN(C)C(=O)N1Cc2nnn(C)c2C(COCc2cccnc2)C1.O=C(O)C(F)(F)F (centres unmarked),1.999
Cc1cccc(N2CCC3(CCCN3Cc3cn(C)nc3C)CC2)n1,-16.99
Cn1nc(CNc2ncccn2)c2c1CN(c1cnccn1)CC2,-87.18
CC(NC(=O)C1=NN(C)C(=O)CC1)c1ccccc1Cl (centres unmarked),-21.29
[H][C@@]12CN(S(=O)(=O)N(C)C)C[C@]1([H])N(Cc1ccccc1OC)C(=O)O2,-2.597

Some entries from above, unchanged:

{"smiles": "[H][C@@]12CN(S(=O)(=O)N(C)C)C[C@]1([H])N(Cc1ccccc1OC)C(=O)O2", "percent effect": -2.597}
{"smiles": "Cc1cc(C)n2ncc(CN3C[C@@H](O)[C@H](Oc4ccccc4)C3)c2n1", "percent effect": -7.358}
{"smiles": "COc1ccccc1CNC(=O)CNc1ccccc1C(C)=O", "percent effect": 2.03}

Data taken from ChEMBL document CHEMBL3988442, “University of Dundee, Small-Polar-MMV Screening Library” (2021).